# In the supplement of paper PMC3334620:
# The full ranking holds about 33,000 sequences; the median of “E-score (-0.5 to 0.5)” is about -8e-05, and the highest 2% start at about 0.23. The list shows a part of the results.
# Target: T1, Nrg2 (UniProt P38082)
# T1 sequence: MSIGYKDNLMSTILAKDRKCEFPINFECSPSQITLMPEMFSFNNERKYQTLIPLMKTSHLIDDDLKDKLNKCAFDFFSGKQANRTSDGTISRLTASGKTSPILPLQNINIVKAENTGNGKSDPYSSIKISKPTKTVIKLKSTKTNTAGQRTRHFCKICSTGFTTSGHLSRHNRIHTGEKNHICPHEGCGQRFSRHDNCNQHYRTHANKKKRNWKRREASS
# Assay: PBM E-score (8-mer binding enrichment) (E-score (-0.5 to 0.5)); higher = stronger / more preferred TF binding
# Conditions: protein concentration: 100 nM; construct: GST-full length
# Summary of the method: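 Using PURExpress in vitro transcription/translation, GST-tagged yeast transcription factors were made in full-length or DNA-binding-domain form. These were applied at about 100-200 nM to double-stranded universal all-10-mer Agilent arrays, and bound protein was detected with fluorescent anti-GST. Scans were normalised with masliner before the Universal PBM Analysis Suite assigned E-scores to ungapped eight-base words pooled with their reverse complements.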
row,Sequence,PBM E-score
1,AAATATCG,0.0888
2,TCTGTAAA,-0.162
3,ACCAAGGT,-0.0285
4,ACCATCCT,-0.0947
5,TGCTAGAA,-0.166
6,CTGAGGCC,-0.0663
7,GTCTCCTA,-0.163
8,GATAATGC,0.121
9,ATTAACTG,0.203
10,GATCGGAA,-0.0186
11,GAATAAGC,-0.0376
12,ACAAAGAA,0.0391
13,AATCAGCT,0.164
14,CAAACCCC,0.00373
15,CGTGACGC,-0.0911
16,AACAGCGT,-0.101
17,CGAGGCAA,0.103
18,CGAATAAA,0.153
19,TCACTCGA,0.0272
20,ATCGGTAA,-0.0755
21,AGGCACAG,-0.0629
22,AGCCTTGA,-0.061
23,CTAGGGTC,0.188
24,CACGGGCG,-0.0461
25,CAGACACA,0.0428

# Some of the entries so far, as tab-separated lines.
row	Sequence	PBM E-score
2	TCTGTAAA	-0.162
5	TGCTAGAA	-0.166
7	GTCTCCTA	-0.163
12	ACAAAGAA	0.0391
13	AATCAGCT	0.164
15	CGTGACGC	-0.0911
18	CGAATAAA	0.153

# Following part:

row,Sequence,PBM E-score
1,AGTTGCTA,0.109
2,GGAGGCAC,-0.246
3,CACCTGTA,-0.0981
4,ACTTACCG,-0.019
5,ATACAAAG,0.0955
6,ACACAACG,0.0761
7,ATCGGTGC,0.0985
8,AATCATTC,0.0508
9,AACTCGCC,0.124
10,ACTAGACC,0.17
11,CGAGGGCA,0.103
12,GCACACGA,-0.077
13,ATCGCTAA,-0.106
14,AGACCGAA,0.0745
15,GAATAGAA,0.193
16,CTGCTAAG,-0.216
17,GATATCGC,0.168
18,ACGCATGG,-0.243
19,ACGTACGG,0.00104
20,GTGGGTCA,-0.0425
21,AAGGCATA,-0.00967
22,AAGGCAGT,0.0607
23,AAGCCGTA,-0.0199
24,ATAAGCCC,-0.166
25,GGATACGA,-0.106

row,Sequence,PBM E-score
1,CTTCGTAA,-0.0449
2,CCTAATAA,0.00129
3,CATCTAGG,0.0834
4,ATATACGG,0.0407
5,CCCCAAAA,0.032
6,ATGATAAA,0.189
7,CCTCAGGA,0.00996
8,ATCTAGAA,-0.0175
9,CCTTCTGA,-0.0225
10,ACTCTTTC,-0.157
11,ACTGGGTG,-0.0765
12,GCTCGCAA,0.0783
13,AAAACCCA,0.148
14,CGCAGGGA,0.17
15,CAGGCCTG,0.115
16,ACTCGATG,0.188
17,AGTGTAGA,-0.15
18,TACCCCTA,0.173
19,GGTCGGAC,-0.0249
20,CGCAAGCG,-0.0991
21,AGCCGTTC,-0.15
22,TAGATCTA,0.0825
23,ATATCAAA,0.096
24,CTGCATTC,0.115
25,AAGTCGTC,-0.185

row,Sequence,PBM E-score
1,CAACACAC,0.118
2,GACAGAGC,-0.102
3,AGAGGGTC,-0.0416
4,AGGGAAAA,0.0653
5,AAAAAGGG,-0.031
6,GCTACCCA,-0.152
7,AACTGGGA,0.0724
8,CATTACTA,0.0965
9,ATACGCCC,-0.19
10,GAGGGGGC,-0.352
11,CAAGCAGC,0.046
12,ATCCACGA,0.124
13,AGGTTCTA,-0.0711
14,ATAAGAAG,0.0507
15,ACAAGAGT,0.00382
16,ATGTTCAG,-0.0215
17,CTGACACA,-0.0539
18,CACTGTAA,0.0516
19,AGCAACAG,-0.0597
20,CGCGTCTA,0.0365
21,GCTCCGGA,-0.138
22,ACGGTCTA,-0.126
23,TGCTTACA,-0.0126
24,GCACGGAC,0.147
25,ACGTATTG,-0.0152

row,Sequence,PBM E-score
1,ACCGGAGG,-0.154
2,AGACCCCA,0.219
3,ACGGATCG,-0.225
4,ACAGAGGA,0.00257
5,TGAGCCCA,0.105
6,ATGAGACG,-0.0393
7,AGGATCGG,-0.147
8,AGACCCGC,0.0763
9,TAAATCAA,0.036
10,GATCAGCA,0.035
11,CAGTTCGC,0.0802
12,GAAATCAA,0.166
13,AATAAAGC,-0.0101
14,CATATTGG,0.105
15,CTTGGCGC,0.115
16,CGATAGAA,0.0645
17,ACGACGGA,0.153
18,CAGGGAGA,0.0226
19,CTCCGAGA,-0.0399
20,TACCTCTA,0.113
21,AAGTTGGG,0.0952
22,AACTCTGC,-0.0708
23,ATTTCGCG,0.275
24,GGAAACTA,-0.0456
25,ATTTCAAC,0.0302

row,Sequence,PBM E-score
1,CGAGGCAG,-0.0745
2,TCATGCGA,0.112
3,ATTCGTTC,0.28
4,GAAAACTC,-0.0267
5,AGAAGGAC,-0.0356
6,CTGAGATC,-0.0337
7,ATCTGAGC,0.0357
8,GGCCCGCC,-0.242
9,CAGTCTTA,-0.211
10,GTTTAGAA,-0.0651
11,GTTCATTA,0.133
12,AACTAAGC,0.109
13,ACCAGGTG,-0.139
14,GAGACCCA,-0.0541
15,CATTGCTC,-0.109
16,GAAAATAA,0.0631
17,CCACAGGG,0.161
18,CTGGCGAA,0.0129
19,AAGTCGAG,-0.0268
20,AGAAGGTA,0.179
21,AGTTGAGC,0.0537
22,CCTATGAC,-0.124
23,CGTGGTCC,-0.174
24,GGAGTTAA,-0.0668
25,ATCAGTGA,0.0481

# Reformatted bar-delimited: entries from further up.
row | Sequence | PBM E-score
17 | CCACAGGG | 0.161
18 | CTGGCGAA | 0.0129
19 | AAGTCGAG | -0.0268
20 | AGAAGGTA | 0.179
21 | AGTTGAGC | 0.0537

# Later entries:

row,Sequence,PBM E-score
1,AAAATGCT,0.058
2,CGATGTCC,0.0965
3,ACGCTTCT,-0.00794
4,CCCGTACA,-0.0951
5,CGACTGAC,-0.0912
6,GATAGCTA,-0.149
7,CAAATATC,0.256
8,GTACCAGA,-0.167
9,TGGTTTAA,0.0356
10,ATTCCCCC,-0.267
11,ATCTCGTG,-0.0868
12,ATCACTCC,-0.151
13,CACGCCCC,-0.0269
14,ATACGCAG,-0.235
15,GTGCAGTA,-0.0363
16,GAGCTGGA,-0.135
17,GCCAACAC,-0.126
18,CAATCTTC,0.0925
19,AGTAAATA,0.147
20,AACGACCG,-0.165
21,AGATAGCG,0.0366
22,ATCTCTGC,0.148
